Experimental data: paper PMC11334333
No constants are given. Whether binding was seen depends on the method and setting. Binding seen in cells or lysates may run through a third protein. Some binding calls cover weakened binding; strength is not graded here. Sequences can lack the tags named with a protein.

By UniProt entry, the sequences of proteins in these tests, tags left out.
UniProt O43491: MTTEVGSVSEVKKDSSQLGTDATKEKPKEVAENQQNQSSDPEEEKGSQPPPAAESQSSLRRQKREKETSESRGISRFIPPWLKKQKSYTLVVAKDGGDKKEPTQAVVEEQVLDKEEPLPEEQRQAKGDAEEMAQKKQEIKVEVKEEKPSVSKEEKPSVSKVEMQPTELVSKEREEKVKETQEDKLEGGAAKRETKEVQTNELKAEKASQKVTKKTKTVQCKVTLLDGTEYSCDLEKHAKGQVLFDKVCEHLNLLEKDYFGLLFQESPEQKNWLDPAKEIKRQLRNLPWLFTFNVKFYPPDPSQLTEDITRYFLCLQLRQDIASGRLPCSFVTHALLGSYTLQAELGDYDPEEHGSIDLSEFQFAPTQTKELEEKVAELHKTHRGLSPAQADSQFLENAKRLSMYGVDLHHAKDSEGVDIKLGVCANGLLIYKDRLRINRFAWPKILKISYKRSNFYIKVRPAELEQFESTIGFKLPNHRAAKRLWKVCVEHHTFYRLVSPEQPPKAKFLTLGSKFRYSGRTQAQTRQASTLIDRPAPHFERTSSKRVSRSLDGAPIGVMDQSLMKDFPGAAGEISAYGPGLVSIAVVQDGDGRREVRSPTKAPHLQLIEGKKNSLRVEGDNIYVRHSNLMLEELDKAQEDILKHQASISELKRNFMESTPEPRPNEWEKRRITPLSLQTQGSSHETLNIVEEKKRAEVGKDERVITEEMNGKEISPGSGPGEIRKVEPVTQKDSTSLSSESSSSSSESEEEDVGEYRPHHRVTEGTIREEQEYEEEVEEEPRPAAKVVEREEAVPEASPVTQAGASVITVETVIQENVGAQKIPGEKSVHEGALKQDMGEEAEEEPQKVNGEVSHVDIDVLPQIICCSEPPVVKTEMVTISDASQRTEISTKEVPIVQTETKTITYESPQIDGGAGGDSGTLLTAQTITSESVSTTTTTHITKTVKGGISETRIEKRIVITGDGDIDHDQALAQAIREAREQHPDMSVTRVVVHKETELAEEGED

Molecular target: mCherry-4.1G (UniProt O43491)
Test: co-IP; extracts of co-transfected HEK293 cells in IP Lysis/Wash Buffer (0.025 M Tris, 0.15 M NaCl, 0.001 M EDTA, 1% NP40, 5% glycerol, pH 7.4); RFP-Trap (anti-mCherry) magnetic agarose beads overnight at 4°C; blots with anti-GFP and anti-mCherry

binding | Binder
binds | TMEM24-eGFP (protein, UniProt O14523 1-706) MDPGWGQRDVGWAALLILFAASLLTVFAWLLQYARGLWLARARGDRGPGPALAGEPAGSLRELGVWRSLLRLRATRAGAAEEPGVRGLLASLFAFKSFRENWQRAWVRALNEQACRNGSSIQIAFEEVPQLPPRASISHVTCVDQSEHTMVLRCQLSAEEVRFPVSVTQQSPAAVSMETYHVTLTLPPTQLEVNLEEIPGEGLLISWAFTDRPDLSLTVLPKLQARERGEEQVELSTIEELIKDAIVSTQPAMMVNLRACSAPGGLVPSEKPPMMPQAQPAIPRPNRLFLRQLRASHLGNELEGTEELCCVAELDNPMQQKWTKPARAGSEVEWTEDLALDLGPQSRELTLKVLRSSSCGDTELLGQATLPVGSPSRPLSRRQLCPLTPGPGKALGPAATMAVELHYEEGSPRNLGTPTSSTPRPSITPTKKIELDRTIMPDGTIVTTVTTVQSRPRIDGKLDSPSRSPSKVEVTEKTTTVLSESSGPSNTSHSSSRDSHLSNGLDPVAETAIRQLTEPSGRVAKKTPTKRSTLIISGVSKVPIAQDELALSLGYAASLEASVQDDAGTSGGPSSPPSDPPAMSPGPLDALSSPTSVQEADETTRSDISERPSVDDIESETGSTGALETRSLKDHKVSFLRSGTKLIFRRRPRQKEAGLSQSHDDLSNATATPSVRKKAGSFSRRLIKRFSFKSKPKANGNPSPQL
no binding | TMEM24(I536A)-eGFP (protein, UniProt O14523 1-706) MDPGWGQRDVGWAALLILFAASLLTVFAWLLQYARGLWLARARGDRGPGPALAGEPAGSLRELGVWRSLLRLRATRAGAAEEPGVRGLLASLFAFKSFRENWQRAWVRALNEQACRNGSSIQIAFEEVPQLPPRASISHVTCVDQSEHTMVLRCQLSAEEVRFPVSVTQQSPAAVSMETYHVTLTLPPTQLEVNLEEIPGEGLLISWAFTDRPDLSLTVLPKLQARERGEEQVELSTIEELIKDAIVSTQPAMMVNLRACSAPGGLVPSEKPPMMPQAQPAIPRPNRLFLRQLRASHLGNELEGTEELCCVAELDNPMQQKWTKPARAGSEVEWTEDLALDLGPQSRELTLKVLRSSSCGDTELLGQATLPVGSPSRPLSRRQLCPLTPGPGKALGPAATMAVELHYEEGSPRNLGTPTSSTPRPSITPTKKIELDRTIMPDGTIVTTVTTVQSRPRIDGKLDSPSRSPSKVEVTEKTTTVLSESSGPSNTSHSSSRDSHLSNGLDPVAETAIRQLTEPSGRVAKKTPTKRSTLIASGVSKVPIAQDELALSLGYAASLEASVQDDAGTSGGPSSPPSDPPAMSPGPLDALSSPTSVQEADETTRSDISERPSVDDIESETGSTGALETRSLKDHKVSFLRSGTKLIFRRRPRQKEAGLSQSHDDLSNATATPSVRKKAGSFSRRLIKRFSFKSKPKANGNPSPQL
